Results deposited as PubChem BioAssay AID652259 (Drosophila RNAi Screening Center, 2013).
Aim: 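Knock-downs that push a Wingless-driven reporter up or down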 (primary screen). System: Drosophila clone 8 imaginal disc epithelial cells. Reagents: long dsRNA against Drosophila genes. Conditions: pathway stimulated by co-transfected Wingless expression plasmid. Read-out: 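Firefly luciferase from a tcf-site Wingless reporter, measured alongside co-transfected Renilla luciferase that tracks transfection; pathway stimulated by a Wingless plasmid; the firefly-to-Renilla ratio is not deposited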. Scale: firefly reporter light: higher = more Wg reporter light, before normalisation; Renilla control light: higher = more transfected or surviving cells. Active means: 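Strong candidates differ from their plate mean by at least two out of four per-plate statistical tests; weak candidates meet just one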. Meaning of the calls: active = candidate regulator (raises or lowers reporter); inactive = not a candidate.
The deposit covers about 22,000 reagents; shown is an unselected part of those with a known target gene and a result. In the full data, 233 (1.1%) were called active. 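Light values are raw, unnormalised plate reads; the ratio scores behind the reporter calls were not deposited.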 A plus sign joins genes that one reagent is predicted to hit. Not stated in the record: the amount of reagent, the time to read-out, the dose of the treatment.

After knock-down of Prosalpha5 [DRSC07514] the results were firefly reporter light, replicate 1 = 12605; Renilla control light, replicate 1 = 1302; inactive.
With knock-down of Liprin-beta [DRSC09795], the record shows firefly reporter light, replicate 1 = 5308; Renilla control light, replicate 1 = 1558; inactive.
For CG15153 [DRSC02454] the deposit lists firefly reporter light, replicate 1 = 2220; firefly reporter light, replicate 2 = 5280; Renilla control light, replicate 1 = 1077; Renilla control light, replicate 2 = 2136; inactive.
With knock-down of PH4alphaEFB [DRSC14473], the screen gave firefly reporter light, replicate 1 = 2755; firefly reporter light, replicate 2 = 8240; Renilla control light, replicate 1 = 1340; Renilla control light, replicate 2 = 1228; inactive.
Silencing of PH4alphaEFB [DRSC14950] gave: firefly reporter light, replicate 1 = 4550; Renilla control light, replicate 1 = 1724; inactive.
Against Lamtor1 [DRSC10183] the deposit lists firefly reporter light, replicate 1 = 17596; Renilla control light, replicate 1 = 5303; inactive.
For CG42375 + CG9288 [DRSC16468], the values are firefly reporter light, replicate 1 = 12247; Renilla control light, replicate 1 = 4743; inactive.
Silencing of Rtf1 [DRSC04085] came out at: firefly reporter light, replicate 1 = 9451; Renilla control light, replicate 1 = 2349; inactive.
CG1428 [DRSC03708] gave firefly reporter light, replicate 1 = 2758; firefly reporter light, replicate 2 = 4454; Renilla control light, replicate 1 = 722; Renilla control light, replicate 2 = 2163; inactive.
Knock-down of CG11226 [DRSC11639] resulted in: firefly reporter light, replicate 1 = 9168; Renilla control light, replicate 1 = 3616; inactive.
Against Sbf [DRSC16852], the entry reads firefly reporter light, replicate 1 = 6087; Renilla control light, replicate 1 = 2577; inactive.
Depletion of LpR2 [DRSC13726] resulted in: firefly reporter light, replicate 1 = 5228; Renilla control light, replicate 1 = 2004; inactive.
Against LpR2 [DRSC13728], the entry reads firefly reporter light, replicate 1 = 3096; Renilla control light, replicate 1 = 1452; inactive.
With knock-down of LpR2 [DRSC15655], the screen gave firefly reporter light, replicate 1 = 2626; firefly reporter light, replicate 2 = 3545; Renilla control light, replicate 1 = 872; Renilla control light, replicate 2 = 1514; inactive.
LpR2 [DRSC15658] gave firefly reporter light, replicate 1 = 20272; Renilla control light, replicate 1 = 8708; inactive.
Knock-down of CG10064 [DRSC09689] gave: firefly reporter light, replicate 1 = 1705; firefly reporter light, replicate 2 = 9658; Renilla control light, replicate 1 = 1324; Renilla control light, replicate 2 = 3497; inactive.
Depletion of Lgr3 [DRSC15704] resulted in: firefly reporter light, replicate 1 = 19169; Renilla control light, replicate 1 = 14311; inactive.
Lgr3 [DRSC15706] scored firefly reporter light, replicate 1 = 22144; Renilla control light, replicate 1 = 17255; inactive.
Silencing of Glo1 [DRSC06657] resulted in: firefly reporter light, replicate 1 = 1597; firefly reporter light, replicate 2 = 5565; Renilla control light, replicate 1 = 576; Renilla control light, replicate 2 = 2371; inactive.
After knock-down of CG18273 [DRSC18150], the record shows firefly reporter light, replicate 1 = 15570; Renilla control light, replicate 1 = 12509; inactive.
With knock-down of CG18273 [DRSC18505], the screen gave firefly reporter light, replicate 1 = 3442; firefly reporter light, replicate 2 = 9515; Renilla control light, replicate 1 = 1526; Renilla control light, replicate 2 = 3001; inactive.
After knock-down of Whamy [DRSC14574], the screen gave firefly reporter light, replicate 1 = 19017; Renilla control light, replicate 1 = 3869; inactive.
Depletion of CG7294 [DRSC03041] gave: firefly reporter light, replicate 1 = 2962; firefly reporter light, replicate 2 = 7532; Renilla control light, replicate 1 = 1815; Renilla control light, replicate 2 = 3798; inactive.
RpS18 [DRSC07540] showed firefly reporter light, replicate 1 = 3241; Renilla control light, replicate 1 = 1746; inactive.
Against mod(mdg4) [DRSC13474], the entry reads firefly reporter light, replicate 1 = 3467; Renilla control light, replicate 1 = 1528; inactive.
For mod(mdg4) [DRSC13475], the values are firefly reporter light, replicate 1 = 3536; Renilla control light, replicate 1 = 1472; inactive.
After knock-down of mod(mdg4) [DRSC13478] the results were firefly reporter light, replicate 1 = 2441; Renilla control light, replicate 1 = 1058; inactive.
Against mod(mdg4) [DRSC13479] the deposit lists firefly reporter light, replicate 1 = 4162; Renilla control light, replicate 1 = 1192; inactive.
For mod(mdg4) [DRSC15042] the deposit lists firefly reporter light, replicate 1 = 32648; Renilla control light, replicate 1 = 7605; inactive.
mod(mdg4) [DRSC17000] gave firefly reporter light, replicate 1 = 2983; firefly reporter light, replicate 2 = 7794; Renilla control light, replicate 1 = 1576; Renilla control light, replicate 2 = 2852; inactive.

Records listed so far whose gene name starts with P or p:
Prosalpha5 [DRSC07514]: firefly reporter light, replicate 1 = 12605; Renilla control light, replicate 1 = 1302; call = inactive
PH4alphaEFB [DRSC14473]: firefly reporter light, replicate 1 = 2755; firefly reporter light, replicate 2 = 8240; Renilla control light, replicate 1 = 1340; Renilla control light, replicate 2 = 1228; call = inactive
PH4alphaEFB [DRSC14950]: firefly reporter light, replicate 1 = 4550; Renilla control light, replicate 1 = 1724; call = inactive
